The series relates to hMSH2:hMSH6 heterodimer (Homo sapiens). Nature of the series: EMSA. Conditions: non-specific NS-shifted complex; not saturable even above 400 nM; insensitive to ATP; unstable to competitor homoduplex; purified recombinant protein; label: 32P 5' end. Background: In EMSA bound probe runs differently from free probe, usually more slowly.

Chains of the proteins cited; added tags and fusions are not shown. Chains listed by the source or under a name are the forms on record and can include a tag or linker.
hMSH2:hMSH6 heterodimer (Homo sapiens), one chain, as listed by the source, chain 1 of 2: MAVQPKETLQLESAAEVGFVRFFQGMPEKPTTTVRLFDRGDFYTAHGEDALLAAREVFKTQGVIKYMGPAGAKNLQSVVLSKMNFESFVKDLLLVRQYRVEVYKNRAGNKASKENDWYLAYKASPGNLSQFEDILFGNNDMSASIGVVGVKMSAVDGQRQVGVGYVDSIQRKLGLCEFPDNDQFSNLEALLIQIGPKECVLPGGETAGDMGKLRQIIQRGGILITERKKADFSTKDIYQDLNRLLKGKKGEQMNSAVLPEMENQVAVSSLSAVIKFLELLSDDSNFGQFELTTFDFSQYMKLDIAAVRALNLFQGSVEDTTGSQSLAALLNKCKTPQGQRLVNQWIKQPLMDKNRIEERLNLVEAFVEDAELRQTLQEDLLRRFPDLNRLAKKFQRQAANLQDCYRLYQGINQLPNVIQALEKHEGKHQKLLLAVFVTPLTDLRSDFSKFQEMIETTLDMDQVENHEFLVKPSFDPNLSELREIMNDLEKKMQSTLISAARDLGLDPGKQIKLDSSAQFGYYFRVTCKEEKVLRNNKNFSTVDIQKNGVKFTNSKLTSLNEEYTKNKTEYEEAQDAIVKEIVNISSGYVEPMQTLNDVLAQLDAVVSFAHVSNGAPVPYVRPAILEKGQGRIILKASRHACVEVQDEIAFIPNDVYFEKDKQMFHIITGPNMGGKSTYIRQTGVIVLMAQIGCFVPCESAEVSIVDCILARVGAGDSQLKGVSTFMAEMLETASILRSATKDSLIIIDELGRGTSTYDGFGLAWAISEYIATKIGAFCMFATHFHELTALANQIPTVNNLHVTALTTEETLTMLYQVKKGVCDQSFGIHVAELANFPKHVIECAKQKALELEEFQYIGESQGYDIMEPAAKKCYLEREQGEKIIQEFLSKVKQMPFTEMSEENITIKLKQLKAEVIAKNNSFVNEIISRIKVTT
hMSH2:hMSH6 heterodimer (Homo sapiens), one chain, as listed by the source, chain 2 of 2: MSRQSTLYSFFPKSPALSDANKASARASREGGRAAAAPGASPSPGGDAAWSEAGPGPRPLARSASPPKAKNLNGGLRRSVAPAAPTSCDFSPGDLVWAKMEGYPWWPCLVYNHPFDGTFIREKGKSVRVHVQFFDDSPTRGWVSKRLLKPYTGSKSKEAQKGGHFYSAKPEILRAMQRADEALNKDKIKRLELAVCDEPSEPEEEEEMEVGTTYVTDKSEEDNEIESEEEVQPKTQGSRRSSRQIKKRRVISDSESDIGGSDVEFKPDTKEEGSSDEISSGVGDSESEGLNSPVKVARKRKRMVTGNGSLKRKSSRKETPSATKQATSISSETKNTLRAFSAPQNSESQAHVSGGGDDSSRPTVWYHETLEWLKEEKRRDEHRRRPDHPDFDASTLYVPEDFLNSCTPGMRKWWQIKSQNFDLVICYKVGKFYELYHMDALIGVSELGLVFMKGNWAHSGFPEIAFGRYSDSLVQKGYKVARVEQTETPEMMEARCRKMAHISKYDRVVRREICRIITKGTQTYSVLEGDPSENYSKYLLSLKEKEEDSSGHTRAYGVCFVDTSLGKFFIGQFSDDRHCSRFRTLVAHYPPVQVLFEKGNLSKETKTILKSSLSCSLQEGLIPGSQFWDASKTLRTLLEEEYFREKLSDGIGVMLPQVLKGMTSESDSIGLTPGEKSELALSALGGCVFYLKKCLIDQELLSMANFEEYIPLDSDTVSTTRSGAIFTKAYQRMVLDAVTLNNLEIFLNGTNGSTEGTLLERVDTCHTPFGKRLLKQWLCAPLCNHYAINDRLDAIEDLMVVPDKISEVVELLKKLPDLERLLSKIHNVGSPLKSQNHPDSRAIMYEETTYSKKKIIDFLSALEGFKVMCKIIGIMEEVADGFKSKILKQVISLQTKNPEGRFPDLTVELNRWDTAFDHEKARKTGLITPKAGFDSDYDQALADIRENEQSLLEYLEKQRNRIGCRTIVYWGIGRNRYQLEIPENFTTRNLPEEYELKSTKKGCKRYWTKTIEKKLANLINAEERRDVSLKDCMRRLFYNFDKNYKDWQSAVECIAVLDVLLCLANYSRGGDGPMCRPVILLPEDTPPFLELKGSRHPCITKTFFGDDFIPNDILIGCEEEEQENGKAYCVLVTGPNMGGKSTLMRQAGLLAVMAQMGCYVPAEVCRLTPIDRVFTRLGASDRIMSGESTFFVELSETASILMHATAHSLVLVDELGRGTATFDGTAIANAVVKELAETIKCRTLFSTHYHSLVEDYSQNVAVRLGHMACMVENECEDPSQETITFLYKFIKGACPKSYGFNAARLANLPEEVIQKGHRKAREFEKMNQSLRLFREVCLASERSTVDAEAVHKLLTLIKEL

From patent US20020058275 come the findings set out here.

A weaker result is weaker than the reference pair of the same experiment.

On to “AAAGCTGGAGCTGAAGCTTAGCTTAGGATCATCGAGGATCGAGCTCGGTGCAATTCAGCGGTACCCAATTCGCCCTATAGT (double strand) [homologous 81-bp duplex]”, for which the binding result is given as “binds more weakly”.
